Test results published in publication PMC10216364, “Structural Insight into the Mechanism of σ32-Mediated Transcription Initiation of Bacterial RNA Polymerase” (Biomolecules, 2023).
A negative result means that nothing was seen under these conditions. Protein sequences can lack the tags named with them.

Target: T1, sigma32 (RpoH) wild type (E. coli) (UniProt P0AGB3)
T1 sequence (looked up): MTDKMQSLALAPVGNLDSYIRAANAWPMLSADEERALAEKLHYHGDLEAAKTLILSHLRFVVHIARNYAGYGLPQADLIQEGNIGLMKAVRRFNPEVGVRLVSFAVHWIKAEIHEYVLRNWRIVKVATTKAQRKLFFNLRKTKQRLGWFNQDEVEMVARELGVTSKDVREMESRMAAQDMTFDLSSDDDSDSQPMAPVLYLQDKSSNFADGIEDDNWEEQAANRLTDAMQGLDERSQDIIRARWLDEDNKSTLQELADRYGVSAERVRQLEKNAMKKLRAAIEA
Assay: fluorescence polarization
Conditions: sigma32 alone, no core enzyme; FP: 10 mM Tris-HCl pH 7.7, 100 mM NaCl, 1 mM DTT, 1% glycerol, 0.025% Tween-20, 5 nM DNA, 10-320 nM holoenzyme, room temperature, 5 min; recombinant protein; residues 1-284; protein details: His tag (pET28a, Ni-NTA)

Does “CCTTGAAGACGTGG (double strand) [short -35 element DNA]” bind?
Result: no binding
